The results in this text go back to patent publication US20180148496A1.

Results are given in words; binding and its absence hold for the method and conditions named. Some results given as binding are weak or reduced against the parent protein; the word gives no strength.

Test [1] addresses 47b (a peptide similar to m47b but without the myristoylation) (Hepatitis B virus (genotype not stated for this peptide)). The experiment in a line: ELISA on peptide captured by streptavidin. In general terms: ELISA stands for enzyme-linked immunosorbent assay.
In test [2] the target is m47b: myristoylated lipopeptide comprising amino acids 2-48 of pre-S1 domain, biotin at the C-terminus, myristoylation at the N-terminus (Hepatitis B virus (genotype not stated for this peptide)). The experiment in a line: ELISA on peptide captured by streptavidin.

B1: m36 (antibody, V domains shown)
VH: QMQLVQSGGGLVQPGRSLRLSCAASGFTFDDYAMHWVRQAPGKGLEWVSGISWNSGSIGYADSVKGRFTISRDNAKNSLYLQMNSLRAEDTALYYCAKTSYGGAFDIWGQGTMVTVSS
VL: QPVLTQSPSASGTPGQRVTISCSGNTSNIGSYYAYWYQQLPGTAPKLLIYDNNQRPSGIPARFSGSKSGTSASLAISGLQSEDEADYYCATWDDSLNGPVFGGGTKVTVL
For B1, the binding entry in test [1] and in test [2] was “binds” throughout.
